Results published in publication PMC7819943, “Rice protein-binding microarrays: a tool to detect cis-acting elements near promoter regions in rice”.
This is one part of the list.

biological target: T1, OsSMF1 (Oryza sativa, UniProt Q6ZLB0 1-436); experiment: protein-binding microarray (RPBM); PBS, 2% BSA, 51.3 ng/ul salmon testes DNA, 50 uM zinc acetate, 200 nM TF, 25 C, 1 h; high values mean tight binding; settings: protein: recombinant; tags: N-terminal polyhistidine and DsRed monomer fusion (pET32a); chain copies: 2; label: CyDye5-dUTP incorporated in the synthesized complementary strand; 3' TTTTT single-stranded linker to array surface; dsDNA, one strand shown
T1 sequence: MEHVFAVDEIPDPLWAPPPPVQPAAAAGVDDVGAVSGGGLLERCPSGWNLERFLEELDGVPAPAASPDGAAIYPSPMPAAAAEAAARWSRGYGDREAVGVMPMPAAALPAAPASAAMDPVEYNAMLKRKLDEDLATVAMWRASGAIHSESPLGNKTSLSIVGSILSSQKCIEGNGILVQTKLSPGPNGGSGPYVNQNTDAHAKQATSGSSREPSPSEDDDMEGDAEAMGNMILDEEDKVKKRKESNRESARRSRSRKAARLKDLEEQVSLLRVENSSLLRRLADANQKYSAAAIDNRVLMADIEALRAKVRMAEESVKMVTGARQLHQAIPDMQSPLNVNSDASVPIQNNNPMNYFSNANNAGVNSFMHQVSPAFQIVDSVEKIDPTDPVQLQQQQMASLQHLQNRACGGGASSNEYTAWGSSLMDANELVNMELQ
Procedure, shortened: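 The binding signal is fluorescence intensity per array feature (arbitrary units). Readings came from an Axon 4000B scanner after a washed, 2% BSA-blocked, double-stranded custom Agilent array had been incubated for 1 h at 25 °C with 200 nM protein and 50 µM zinc acetate. The protein was a Ni–NTA-purified transcription factor fused N-terminally to polyhistidine and DsRed, expressed in E. coli BL21-CodonPlus.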

Q: With “AGAATTTTGCAGACCGAGGCTTGGCCACCGAGGCGCAAGCCGGAGTCACCTAGTGCAG” as the sequence, how does the binding signal read?
A: 3790 fluorescence intensity (a.u.)

Q: For “CGGATCTTTTAAGCCTAATTGCGTCATGATTTGACAATGTCGGAGTCACCTAGTGCAG”, which binding signal is on record?
A: 3540 fluorescence intensity (a.u.)

Q: With “AGGAATCAAAATCAGCACGTATGCACTAACACAAGCATCACGGAGTCACCTAGTGCAG” as the sequence, how does the binding signal read?
A: 6920 fluorescence intensity (a.u.)

Q: “GAGGAGGGAGACAGAAGGGAAAGAAACGCGTCCGTCAACGCGGAGTCACCTAGTGCAG” was tested. Which binding signal did it give?
A: 3390 fluorescence intensity (a.u.)

Q: “CCACAACACGTTAGCACCTCATCGGCCCAATCTTGAAAGCCGGAGTCACCTAGTGCAG” was tested. Which binding signal did it give?
A: 4130 fluorescence intensity (a.u.)

Q: How did the binding signal turn out when “AAAGGATCAGAGCCGTACACGTGGCGTCCACGTCCACCCCCGGAGTCACCTAGTGCAG” was run?
A: 26400 fluorescence intensity (a.u.)

Q: With “GACCAAGATGACAAAGATTACTATTATACTGATGATAACCCGGAGTCACCTAGTGCAG” as the sequence, how does the binding signal read?
A: 34100 fluorescence intensity (a.u.)

Q: For “GAGCAATCCATGGAAATGGAATGACGCAATCAGAGGTGACCGGAGTCACCTAGTGCAG”, which binding signal is on record?
A: 4560 fluorescence intensity (a.u.)

Q: Which binding signal does the source give for “ACACAATTCACGTGCTCCCAACTTCCCAAGTCCACATCACCGGAGTCACCTAGTGCAG” here?
A: 7000 fluorescence intensity (a.u.)

Q: “GTGGTTCCTGAACCTGGCCTCCCTCTCACTGATGATGACGCGGAGTCACCTAGTGCAG” was tested. Which binding signal did it give?
A: 3450 fluorescence intensity (a.u.)

Q: With “GCAATTCACTCCAGTTCACTTTGCCAGCTTGTCTCTCTGACGGAGTCACCTAGTGCAG” as the sequence, how does the binding signal read?
A: 3520 fluorescence intensity (a.u.)

Q: With “CGCTGCTCCGGTTTTAAATGTTCGCTCTGGAGCCTCTTGTCGGAGTCACCTAGTGCAG” as the sequence, how does the binding signal read?
A: 12300 fluorescence intensity (a.u.)

Q: How did the binding signal turn out when “GTGTGCACGTACGTGTAGCCGCCGCCGCAGATAGTACACCCGGAGTCACCTAGTGCAG” was run?
A: 4250 fluorescence intensity (a.u.)

Q: How did the binding signal turn out when “AACGTGAATCTGAGATCGGATGCTGTGCCAAATAATGCCGCGGAGTCACCTAGTGCAG” was run?
A: 3770 fluorescence intensity (a.u.)

Q: How did the binding signal turn out when “TGTGGCAAGAGCATTTGTTTGGTTTGATGCCAGCTCAAAGCGGAGTCACCTAGTGCAG” was run?
A: 3860 fluorescence intensity (a.u.)

Q: “AAACAAGTGCGATGTAGTTCATCATCAGCTGCGTCCGGTGCGGAGTCACCTAGTGCAG” was tested. Which binding signal did it give?
A: 3340 fluorescence intensity (a.u.)

Q: Which binding signal does the source give for “GTGTCAGATGAAGGCCGGGTCAAATTAGCCACGTAGGCGCCGGAGTCACCTAGTGCAG” here?
A: 11500 fluorescence intensity (a.u.)

Q: “AATGTGTTAACTAATCAACTCGTCTCCCATCTCCTGCAAGCGGAGTCACCTAGTGCAG” was tested. Which binding signal did it give?
A: 17600 fluorescence intensity (a.u.)

Q: Which binding signal does the source give for “TACCATCTGCGCTCCCGGTGATGAAGTAGTCAGCAGGAGACGGAGTCACCTAGTGCAG” here?
A: 3720 fluorescence intensity (a.u.)

Q: “ATGTCGGAGGTCCTCAGCAGGGTGGCATGCGGCATCGGTGCGGAGTCACCTAGTGCAG” was tested. Which binding signal did it give?
A: 3140 fluorescence intensity (a.u.)

Q: With “AGAGGATCCAATGCAATGCAATGTGATGTGAAGTTTTACCCGGAGTCACCTAGTGCAG” as the sequence, how does the binding signal read?
A: 3500 fluorescence intensity (a.u.)

Q: How did the binding signal turn out when “GTAATGTTGCCAAATCACAAGATCGCACACCCAATTGATCCGGAGTCACCTAGTGCAG” was run?
A: 25600 fluorescence intensity (a.u.)

Q: How did the binding signal turn out when “AACAAAAGGGCGCAGTCACCGGCCTCCTCATATACACGCGCGGAGTCACCTAGTGCAG” was run?
A: 3280 fluorescence intensity (a.u.)

Q: With “CGGCGTCGAGGGCGGAGTGGGAGACAGCGCCAGGGACGTGCGGAGTCACCTAGTGCAG” as the sequence, how does the binding signal read?
A: 3910 fluorescence intensity (a.u.)

Q: With “AGCCGTCTGGGATCTACGGTGGTTATGGTCGCGAGAGCTCCGGAGTCACCTAGTGCAG” as the sequence, how does the binding signal read?
A: 3470 fluorescence intensity (a.u.)

Q: “AACACGAAAATGAAAGGGAGGGGCTTTCCTTAGCGATTAACGGAGTCACCTAGTGCAG” was tested. Which binding signal did it give?
A: 3830 fluorescence intensity (a.u.)

Q: Which binding signal does the source give for “CAGTTCCCATCAACATCGTCCGTTTGATCTCGCGGCAGGGCGGAGTCACCTAGTGCAG” here?
A: 21500 fluorescence intensity (a.u.)

Q: Which binding signal does the source give for “CTCCATCTTTGTTTATCCTTAAGCACCTAATTCATCATGTCGGAGTCACCTAGTGCAG” here?
A: 19100 fluorescence intensity (a.u.)

Q: With “GGCCTCGACCTCCTCTGCCGTGACAAGGCCCTGCTGCCACCGGAGTCACCTAGTGCAG” as the sequence, how does the binding signal read?
A: 3470 fluorescence intensity (a.u.)

Q: For “TTCCACAGTGCGTGCTGCCATATGTAATCTAAATTGTCATCGGAGTCACCTAGTGCAG”, which binding signal is on record?
A: 3340 fluorescence intensity (a.u.)

Q: With “ACTACTAACGTGTCACATCTTAGTCTACCCTCTCCTCTGACGGAGTCACCTAGTGCAG” as the sequence, how does the binding signal read?
A: 6840 fluorescence intensity (a.u.)

Q: With “GGCCCACTCGGCCAGCTTCCGCTGCGGCCCTGCCTGCCTGCGGAGTCACCTAGTGCAG” as the sequence, how does the binding signal read?
A: 3280 fluorescence intensity (a.u.)

Q: With “GTTCCAACTTCCAAGCAAAGTACACGTGTAGTTCCATATTCGGAGTCACCTAGTGCAG” as the sequence, how does the binding signal read?
A: 9640 fluorescence intensity (a.u.)

Q: “CGCCGCGTGGTTCTTCGTTTCGTTTGTCTCGCCATCTCTTCGGAGTCACCTAGTGCAG” was tested. Which binding signal did it give?
A: 3470 fluorescence intensity (a.u.)

Q: Which binding signal does the source give for “ATGAATCCTGACGCATTGGTTTCAGGTGATTACACCTTTTCGGAGTCACCTAGTGCAG” here?
A: 4510 fluorescence intensity (a.u.)

Q: For “TAGTGGGGAGGCGGTGGTGCTGCGGGGAGGGAGGGAGCACCGGAGTCACCTAGTGCAG”, which binding signal is on record?
A: 3800 fluorescence intensity (a.u.)

Q: “CTCCTCCATTGCCAGTTGCTACTCATCCTCATCCTCTCCACGGAGTCACCTAGTGCAG” was tested. Which binding signal did it give?
A: 22600 fluorescence intensity (a.u.)

Q: “GGGAGCGGCGGAGGAGGAGGGCGCGGCGGCGGTGGGGTGGCGGAGTCACCTAGTGCAG” was tested. Which binding signal did it give?
A: 4920 fluorescence intensity (a.u.)

Q: “ATTGCTGTATGCGTCCATCTGCAAGCAATTCAAAACCAGCCGGAGTCACCTAGTGCAG” was tested. Which binding signal did it give?
A: 26900 fluorescence intensity (a.u.)

Q: “CCTTGATGATTGAACCAGTCAGCCCCAACATCTCTATAAACGGAGTCACCTAGTGCAG” was tested. Which binding signal did it give?
A: 3260 fluorescence intensity (a.u.)

Q: For “TGGCGACCTCAGCTTTGCATCATCACTACTTCAGTCCAGCCGGAGTCACCTAGTGCAG”, which binding signal is on record?
A: 4200 fluorescence intensity (a.u.)

Q: How did the binding signal turn out when “CCGTCTTCTCTGCCGATCGATGACGATGAGCTTCTCCTCCCGGAGTCACCTAGTGCAG” was run?
A: 4480 fluorescence intensity (a.u.)

Q: Which binding signal does the source give for “AATGTGCTATACAATTTTAATATAGAACATGTCACCATCCCGGAGTCACCTAGTGCAG” here?
A: 3660 fluorescence intensity (a.u.)

Q: For “GTTGATCAAATTCATACGTGTGCATAGCAATTTCCCAAATCGGAGTCACCTAGTGCAG”, which binding signal is on record?
A: 5100 fluorescence intensity (a.u.)

Q: Which binding signal does the source give for “GTGACAGCCAGCCAGCCACTGCGTCACATCGCTTGTGAGTCGGAGTCACCTAGTGCAG” here?
A: 3300 fluorescence intensity (a.u.)

Q: For “CCTTTTGTCCATCTATACATGTAGGGAGGTGAGTGAAGTGCGGAGTCACCTAGTGCAG”, which binding signal is on record?
A: 4460 fluorescence intensity (a.u.)

Q: “CCACATTCCGCCAGCTGGCCAGCTCGAGCCACCTCATCAGCGGAGTCACCTAGTGCAG” was tested. Which binding signal did it give?
A: 5650 fluorescence intensity (a.u.)

Q: How did the binding signal turn out when “TCTCCTCCCTCGTTTCTCCTGACACGCTCTCATCCTACAACGGAGTCACCTAGTGCAG” was run?
A: 3370 fluorescence intensity (a.u.)

Q: Which binding signal does the source give for “TTTTAAAGAAAGAATTAGATAATATTGCTGACGAGGACTGCGGAGTCACCTAGTGCAG” here?
A: 10100 fluorescence intensity (a.u.)

Q: Which binding signal does the source give for “TCGAGGTATCACGTACATATATATCTCCTACCTTTCTCTACGGAGTCACCTAGTGCAG” here?
A: 3200 fluorescence intensity (a.u.)

Q: How did the binding signal turn out when “CGAGCTGATCCCCGCGGATGTAGCGACGGCGTGGACCTCCCGGAGTCACCTAGTGCAG” was run?
A: 3780 fluorescence intensity (a.u.)

Q: “TTCCGTCGTGGTCATCATTCCAGTGAACTGTTTAGCTGTTCGGAGTCACCTAGTGCAG” was tested. Which binding signal did it give?
A: 4370 fluorescence intensity (a.u.)

Q: With “CCTGGACCATATATATACGATGAAGGCCCATTTAGTAGGACGGAGTCACCTAGTGCAG” as the sequence, how does the binding signal read?
A: 22200 fluorescence intensity (a.u.)

Q: With “CTCCAATGACTAAGCTGAGTTCATTCCAGCTAGTTCCCAACGGAGTCACCTAGTGCAG” as the sequence, how does the binding signal read?
A: 4240 fluorescence intensity (a.u.)
